Experimental data: PubChem BioAssay AID1259286 (Sanger Institute, 2017)

- Test: 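Kinase knock-downs that reduce colorectal cancer cell viability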 (primary screen)
- Cell system: NCI-H630 human colorectal cancer cells
- Knock-down reagent: siRNA pool against human genes
- Treatment: anchor drugs BYL719 at 1 µM, cetuximab at 5 µg/ml or trametinib at 10 nM, or DMSO vehicle alone; exposure time not given
- Detection: 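Viability relative to non-targeting pool wells, averaged over replicates, with robust z-score for knock-down alone and a synergy score for each anchor drug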
- Direction: viability z-score, knock-down alone: higher = more viable cells, weaker knock-down effect; viability vs control, knock-down alone: higher = more viable cells
- Units: viability vs control, knock-down alone in fraction of control
- Rule for the call: 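Essential call: robust z-score of viability with siRNA alone lower than -3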
- Meaning of the calls: active = essential when knocked down alone; inactive = not essential alone
This is a random part of 794 reagents. Of all reagents, 17 (2.1%) got an active call. 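Calls use knock-down alone only; synergy above 0.15 marked separately; viability seems capped at control level; exposure time not given.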 Further read-outs or replicates are left out here. Not stated in the record: the amount of reagent, the time to read-out.

BTK (GeneID 695) | viability z-score, knock-down alone = 0.464; viability vs control, knock-down alone = 1; activity call = inactive
PANK3 (GeneID 79646) | viability z-score, knock-down alone = 0.464; viability vs control, knock-down alone = 1; activity call = inactive
PRKCQ (GeneID 5588) | viability z-score, knock-down alone = 0.464; viability vs control, knock-down alone = 1; activity call = inactive
MPP3 (GeneID 4356) | viability z-score, knock-down alone = 0.351; viability vs control, knock-down alone = 0.996; activity call = inactive
MAPK13 (GeneID 5603) | viability z-score, knock-down alone = 0.464; viability vs control, knock-down alone = 1; activity call = inactive
PGK1 (GeneID 5230) | viability z-score, knock-down alone = -0.157; viability vs control, knock-down alone = 0.977; activity call = inactive
TNK2 (GeneID 10188) | viability z-score, knock-down alone = 0.464; viability vs control, knock-down alone = 1; activity call = inactive

2 of these entries, set out differently:
Target gene	viability z-score, knock-down alone	viability vs control, knock-down alone	activity call
MPP3 (GeneID 4356)	0.351	0.996	inactive
MAPK13 (GeneID 5603)	0.464	1	inactive

Continued.
PTK2B (GeneID 2185) | viability z-score, knock-down alone = 0.464; viability vs control, knock-down alone = 1; activity call = inactive
EPHB4 (GeneID 2050) | viability z-score, knock-down alone = 0.464; viability vs control, knock-down alone = 1; activity call = inactive
DMPK (GeneID 1760) | viability z-score, knock-down alone = 0.464; viability vs control, knock-down alone = 1; activity call = inactive
CAD (GeneID 790) | viability z-score, knock-down alone = 0.464; viability vs control, knock-down alone = 1; activity call = inactive
PRPS1L1 (GeneID 221823) | viability z-score, knock-down alone = 0.41; viability vs control, knock-down alone = 0.998; activity call = inactive
